PubChem BioAssay AID1259405 – NCATS – 2018
Screen: 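Mouse-designed siRNAs used to find CHO productivity engineering targets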 (primary screen). System: Chinese hamster CHO-K1 ovary cells with stable secreted eGFP expression. Knock-down reagent: single siRNA against mouse genes, 0.8 pmol siRNA per well (2 µl of 400 nM stock). Duration: 3 days. Detection: 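Per-well intracellular GFP measured by laser scanning cytometry, plus viability from ATP luminescence, each relative to plate median of non-targeting control wells, in %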. Scale: GFP, % of control: higher = more GFP per well, higher productivity; viability (ATP), % of control: higher = more viable cells (more ATP). Call rule: 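Called active when intracellular GFP, relative to negative control, is at or above 120%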.
Here is one part, drawn at random, of about 50,000 deposited reagents. Over the whole deposit, about 4,000 (8%) were called active. 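Mouse siRNA library applied to hamster cells; one well for each siRNA.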 The numbers tell different reagents against one gene apart.

target | siRNA no. | GFP, % of control | viability (ATP), % of control | outcome
Foxd3 | 1 | 148 | 79.4 | active
Foxd3 | 2 | 58.1 | 57.2 | inactive
Bpgm | 1 | 79.3 | 112 | inactive
Bpgm | 2 | 54.8 | 69.4 | inactive
Bpgm | 3 | 88.1 | 86 | inactive
Nmi | 1 | 64 | 74 | inactive
Nmi | 2 | 145 | 136 | active
Srebf1 | 1 | 59.1 | 59.3 | inactive
Srebf1 | 2 | 69.4 | 67.9 | inactive
Srebf1 | 3 | 116 | 68.2 | inactive
Zfp9 | 1 | 38.6 | 77.5 | inactive
Zfp9 | 2 | 102 | 90.5 | inactive
Gprc6a | 1 | 144 | 84.9 | active
Gprc6a | 2 | 90.6 | 67.4 | inactive
Gprc6a | 3 | 68 | 61.8 | inactive
Spred2 | 1 | 75.6 | 71.4 | inactive
Spred2 | 2 | 56.7 | 57.9 | inactive
Spred2 | 3 | 105 | 99.1 | inactive
Fstl3 | 1 | 74.5 | 69 | inactive
Fstl3 | 2 | 164 | 123 | active
Fstl3 | 3 | 60.3 | 37.7 | inactive
Mlph | 1 | 52.7 | 58.1 | inactive
Mlph | 2 | 87.1 | 71.1 | inactive
Mlph | 3 | 80.8 | 68.6 | inactive
Hrh3 | 1 | 109 | 80.7 | inactive
Hrh3 | 2 | 86.5 | 48.3 | inactive
Hrh3 | 3 | 68.9 | 67.5 | inactive
Pnlip | 1 | 78.5 | 83.6 | inactive
Pnlip | 2 | 64.6 | 70.6 | inactive
Pnlip | 3 | 76.5 | 67.3 | inactive
Gga3 | 1 | 155 | 103 | active
Gga3 | 2 | 39.5 | 41.3 | inactive
Gga3 | 3 | 50.6 | 93.8 | inactive
Aurkc | 1 | 97.1 | 127 | inactive
Aurkc | 2 | 159 | 121 | active
Aurkc | 3 | 90.6 | 67.1 | inactive
Ralgps1 | 1 | 68.3 | 78.7 | inactive
Ralgps1 | 2 | 62.6 | 86.6 | inactive
Ralgps1 | 3 | 45.2 | 58.1 | inactive
Tbc1d9b | 1 | 85.9 | 34.7 | inactive
Tbc1d9b | 2 | 58.3 | 56.1 | inactive
Tbc1d9b | 3 | 42.5 | 33.1 | inactive
Agtr1a | 1 | 156 | 78 | active
Agtr1a | 2 | 68.4 | 54 | inactive
Agtr1a | 3 | 70.1 | 102 | inactive
Samd11 | 1 | 167 | 84 | active
Samd11 | 2 | 60.8 | 71.4 | inactive
Samd11 | 3 | 57.8 | 67 | inactive
Nrbf2 | 1 | 130 | 91.1 | active
Nrbf2 | 2 | 71.7 | 92 | inactive
Nrbf2 | 3 | 86.4 | 107 | inactive
Gja10 | 1 | 96.1 | 33.2 | inactive
Gja10 | 2 | 72.1 | 60.8 | inactive
Gja10 | 3 | 84.2 | 64.7 | inactive
Tor4a | 1 | 47 | 57.2 | inactive
Tor4a | 2 | 46 | 77.6 | inactive
Tor4a | 3 | 61.4 | 80.5 | inactive
